Measurements published in US20230287071A1.
These are yes or no findings as the source states them, for the method shown. Binding calls can cover weak binding; strength is not graded here.

target: HLA-B*44:05 (human); experiment: UV peptide-exchange ELISA, yield grade

binding, binds:
AETSYVKVLEY [… (SEQ ID NO: 84)], SLAELIAKDW [… (SEQ ID NO: 94)], SEAGLTANQY [… (SEQ ID NO: 93)], TEQSLYYRQW [… (SEQ ID NO: 80)], GEGTLRLSW [… (SEQ ID NO: 73)], GEKATMQNL [… (SEQ ID NO: 81)], EESLLSSWDF [… (SEQ ID NO: 91)], QTLKAMVQAW [… (SEQ ID NO: 86)], LETSCGSSTAY [… (SEQ ID NO: 75)], TEGGTQKTF [… (SEQ ID NO: 83)], MDELEEGESY [… (SEQ ID NO: 96)], AAFEDAQGHIW [… (SEQ ID NO: 95)], GEARGDQVDW [… (SEQ ID NO: 87)], TEFSNHINL [… (SEQ ID NO: 78)], QETLAESTW [… (SEQ ID NO: 77)], AELEGALQKA [… (SEQ ID NO: 74)], RLNEHPSNNW [… (SEQ ID NO: 76)], KEPSQSCIAQY [… (SEQ ID NO: 92)], SEIDEKVTDL [… (SEQ ID NO: 85)], TEAQRLDCW [… (SEQ ID NO: 79)], KEFYPVKEF [… (SEQ ID NO: 89)], EESLLSSW [EESLLSSW (SEQ ID NO: 90)]
